Publication PMC5543739
No constants are given. Whether binding was seen depends on the method and setting. In cells and extracts the contact can be indirect. Some binding calls cover weakened binding; strength is not graded here. For part of these data: Sequences can lack the tags named with a protein.

Sequences of proteins named here, by UniProt entry; tags and fusion partners are left off.
UniProt P08047: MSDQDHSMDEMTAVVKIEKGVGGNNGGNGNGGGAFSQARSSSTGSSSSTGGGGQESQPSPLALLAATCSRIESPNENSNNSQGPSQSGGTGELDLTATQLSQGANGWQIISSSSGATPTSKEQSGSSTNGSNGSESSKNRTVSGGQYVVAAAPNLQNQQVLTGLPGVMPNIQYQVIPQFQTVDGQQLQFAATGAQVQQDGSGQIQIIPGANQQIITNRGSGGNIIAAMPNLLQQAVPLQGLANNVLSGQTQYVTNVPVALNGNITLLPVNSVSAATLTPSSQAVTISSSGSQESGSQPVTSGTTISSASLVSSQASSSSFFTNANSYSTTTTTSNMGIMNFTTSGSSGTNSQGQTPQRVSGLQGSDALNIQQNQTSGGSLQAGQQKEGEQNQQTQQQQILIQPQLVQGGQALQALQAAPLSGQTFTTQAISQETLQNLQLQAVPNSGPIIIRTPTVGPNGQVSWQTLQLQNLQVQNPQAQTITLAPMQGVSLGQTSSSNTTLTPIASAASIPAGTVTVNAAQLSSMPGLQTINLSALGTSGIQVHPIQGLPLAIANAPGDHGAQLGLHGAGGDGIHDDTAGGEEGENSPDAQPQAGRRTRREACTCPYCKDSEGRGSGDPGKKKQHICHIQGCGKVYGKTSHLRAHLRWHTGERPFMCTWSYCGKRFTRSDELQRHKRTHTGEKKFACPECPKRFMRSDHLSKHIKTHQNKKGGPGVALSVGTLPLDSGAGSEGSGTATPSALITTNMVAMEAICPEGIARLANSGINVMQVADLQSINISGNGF

Experiments:
[1] = molecular target: T1, NFATc2 (nuclear factor of activated T-cells c2), endogenous in PaTu 8988t cells (human (endogenous in PaTu 8988t)) (UniProt Q13469); assay: co-IP; 500 ug PaTu 8988t lysate immunoprecipitated with anti-NFATc2 antibody and protein G or A agarose, blotted for Sp1 and MEF 2A; cells serum-free 3 h, then 0.5 uM Ionomycin for 0, 10, 60 min
T1 sequence: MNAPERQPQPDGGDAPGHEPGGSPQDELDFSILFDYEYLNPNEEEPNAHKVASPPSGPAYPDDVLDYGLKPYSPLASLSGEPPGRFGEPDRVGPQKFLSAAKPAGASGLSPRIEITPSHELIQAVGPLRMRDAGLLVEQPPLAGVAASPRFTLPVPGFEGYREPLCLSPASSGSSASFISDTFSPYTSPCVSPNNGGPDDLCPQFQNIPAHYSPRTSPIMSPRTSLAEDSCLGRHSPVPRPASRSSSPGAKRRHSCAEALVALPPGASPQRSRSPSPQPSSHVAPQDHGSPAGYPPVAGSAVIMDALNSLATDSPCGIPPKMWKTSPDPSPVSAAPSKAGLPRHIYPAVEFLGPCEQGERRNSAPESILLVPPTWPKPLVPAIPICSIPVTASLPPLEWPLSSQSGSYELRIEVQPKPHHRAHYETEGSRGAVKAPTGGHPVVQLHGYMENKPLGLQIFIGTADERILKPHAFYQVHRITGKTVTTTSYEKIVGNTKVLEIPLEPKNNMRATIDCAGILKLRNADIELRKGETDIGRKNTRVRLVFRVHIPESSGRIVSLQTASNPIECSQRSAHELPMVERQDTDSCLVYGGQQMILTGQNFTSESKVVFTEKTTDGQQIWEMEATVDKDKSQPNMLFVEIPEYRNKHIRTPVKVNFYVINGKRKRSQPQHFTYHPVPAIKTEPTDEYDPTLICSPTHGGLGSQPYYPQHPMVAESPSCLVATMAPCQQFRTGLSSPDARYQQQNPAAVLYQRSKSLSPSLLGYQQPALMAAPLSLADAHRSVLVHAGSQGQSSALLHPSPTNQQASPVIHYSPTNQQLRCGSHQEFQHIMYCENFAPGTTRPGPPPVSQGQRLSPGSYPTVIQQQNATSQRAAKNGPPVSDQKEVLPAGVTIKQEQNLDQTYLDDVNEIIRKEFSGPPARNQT

[2] = molecular target: T1, NFATc2 (nuclear factor of activated T-cells c2), endogenous in PaTu 8988t cells (human (endogenous in PaTu 8988t)); assay: DNA pull-down; 200 ug lysate protein incubated 3 h with biotinylated double-stranded oligonucleotide with the GGAAA NFAT consensus sequence of the human interleukin-2 promoter, streptavidin-agarose, blotted for NFATc2 and Sp1; cells with or without Ionomycin, with siControl or NFATc2 siRNA
[3] = molecular target: T2, GST-NFATc2 fusion protein (UniProt Q13469); assay: pull-down; 3 ug bacteriologically expressed GST or GST-NFAT on glutathione agarose beads incubated with total protein of PaTu 8988t cells overexpressing Sp1, 4 °C, 15-18 h; Western blot; only the target purified
T2 sequence: T1 sequence

binding [1]	binding [2]	binding [3]	Substance
binds	binds		Sp1 (specificity protein 1), endogenous in PaTu 8988t cells (from UniProt P08047 1-785)
		binds	Sp1 overexpressed in PaTu 8988t cells by transfection (from UniProt P08047 1-785)
